The record followed here is patent US20250213694A1 (SHANGHAI SIMNOVA BIOTECHNOLOGY, published 2025).

Sequences of proteins named here, by UniProt entry; tags and fusion partners are left off. Residues count along the entry.
UniProt Q02223, residues 1-54: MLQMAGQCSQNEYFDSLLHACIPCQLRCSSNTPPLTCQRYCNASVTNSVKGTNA

This assay addresses human BCMA protein (human) (UniProt Q02223). The assay can be described thus: phage library panning and clone identification.

Results are given in words; binding and its absence hold for the method and conditions named. Some results given as binding are weak or reduced against the parent protein; the word gives no strength.

B1: VHH2 (VHH)
VHH: QVQLVESGGGLVQSRGSLRLSCAASESISSIHIMAWYRRAPGKQRELVAGIRNDGSTVYADSAKGRFTISRDNAKNTVYLQMNSLKPEDTAVYYCNADQGFGSYSEWERRSRWGQGTEVTVSS
With B1, the binding entry was “binds”.
